Measured values as given in the supplement of paper PMC12282887.
These are raw signals, not scaled to a control.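 For antimicrobials the highest concentration approximated the MIC. Most other compounds topped out at 500 µM, and known inducer-like compounds reached up to 1 mM. Inocula for deletion strains were tenfold smaller, and any well growing below 10% of the overall median was considered non-growing.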

System: Escherichia coli BW25113
Experiment: growth (OD600 area under curve, 8 h) (OD600 x h); higher = more growth
Protocol: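 E. coli BW25113 reporter strains (wild type, ΔmarA, ΔsoxS, Δrob, each carrying one of 8 lux reporter plasmids) were grown in 40 µl LB in 384-well plates at 37°C, 800 rpm, with each compound at 4 two-fold concentrations, in biological duplicates. Growth is the baseline-corrected OD600 area under the curve over 8 h (0-8 h WT, 1-9 h deletion strains).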

COc1cc(NS(=O)(=O)c2ccc(N)cc2)ncn1 [Sulfamonomethoxine]
growth
Details | reporter plasmid: EVC | reporter plasmid: acrABp | reporter plasmid: marRABp | reporter plasmid: micFp | reporter plasmid: ompFp | reporter plasmid: robp | reporter plasmid: soxSp | reporter plasmid: tolCp
7 µg/ml, genetic background: wild type | 2.91 | 3.18 | 2.9 | 3.17 | 2.69 | 2.69 | 2.99 | 3
7 µg/ml, genetic background: ΔmarA | 3.19 | 3.86 | 3.22 | 3.45 | 3.06 | 3.29 | 3.03 | 2.98
7 µg/ml, genetic background: Δrob | 3.23 | 3.07 | 2.95 | 3.03 | 2.3 | 2.59 | 2.89 | 3.07
7 µg/ml, genetic background: ΔsoxS | 3.44 | 3.34 | 2.82 | 2.95 | 2.85 | 2.86 | 3.03 | 3.3
14 µg/ml, genetic background: wild type | 2.86 | 3.26 | 2.86 | 3.01 | 2.7 | 2.67 | 2.8 | 2.89
14 µg/ml, genetic background: ΔmarA | 3.11 | 3.84 | 3.22 | 3.29 | 3.01 | 3.27 | 2.89 | 2.94
14 µg/ml, genetic background: Δrob | 3.042 | 2.932 | 3.192 | 3.04 | 2.22 | 2.59 | 2.81 | 3.02
14 µg/ml, genetic background: ΔsoxS | 3.16 | 3.28 | 2.95 | 2.76 | 2.86 | 2.98 | 2.88 | 3.1
28 µg/ml, genetic background: wild type | 3.12 | 3.03 | 2.98 | 3.18 | 2.873 | 3.16 | 3.24 | 3.21
28 µg/ml, genetic background: ΔmarA | 3.37 | 4.05 | 3.32 | 3.6 | 3.42 | 3.47 | 3.29 | 3.03
28 µg/ml, genetic background: Δrob | 3.42 | 2.97 | 2.92 | 3.3 | 2.51 | 2.789 | 3.1262 | 3.304
28 µg/ml, genetic background: ΔsoxS | 3.47 | 3.43 | 3.19 | 3.17 | 3.0713 | 3.22 | 3.13 | 3.45
56.1 µg/ml, genetic background: wild type | 2.88 | 2.86 | 2.8 | 2.76 | 2.553 | 2.91 | 2.92 | 2.908
56.1 µg/ml, genetic background: ΔmarA | 3.1 | 3.86 | 3.28 | 3.31 | 3.1 | 3.56 | 3.04 | 2.8
56.1 µg/ml, genetic background: Δrob | 3.11 | 2.26 | 2.72 | 2.85 | 2.04 | 2.38 | 2.81 | 3.1
56.1 µg/ml, genetic background: ΔsoxS | 3.27 | 2.99 | 2.72 | 2.89 | 2.59 | 2.81 | 2.97 | 3.34

C/C=C/C/C=C/CCC(=O)[C@H]1O[C@H]1C(N)=O [Cerulenin]
growth
Details | reporter plasmid: EVC | reporter plasmid: acrABp | reporter plasmid: marRABp | reporter plasmid: micFp | reporter plasmid: ompFp | reporter plasmid: robp | reporter plasmid: soxSp | reporter plasmid: tolCp
1.3 µg/ml, genetic background: wild type | 2.81 | 2.48 | 3.01 | 2.89 | 2.64 | 2.95 | 2.79 | 2.86
1.3 µg/ml, genetic background: ΔmarA | 3.11 | 3.37 | 3.15 | 2.91 | 3.05 | 3.08 | 2.63 | 2.78
1.3 µg/ml, genetic background: Δrob | 2.38 | 2.98 | 3.06 | 2.98 | 2.16 | 2.3 | 2.77 | 2.82
1.3 µg/ml, genetic background: ΔsoxS | 2.6 | 2.63 | 2.76 | 2.57 | 2.44 | 2.82 | 2.72 | 2.73
2.5 µg/ml, genetic background: wild type | 2.74 | 2.67 | 2.89 | 2.73 | 2.68 | 3.05 | 2.487 | 2.57
2.5 µg/ml, genetic background: ΔmarA | 3.22 | 4.05 | 2.74 | 2.96 | 2.68 | 2.86 | 2.57 | 2.78
2.5 µg/ml, genetic background: Δrob | 2.59 | 3.55 | 3.28 | 2.74 | 2.21 | 2.56 | 2.54 | 2.52
2.5 µg/ml, genetic background: ΔsoxS | 2.5 | 2.87 | 2.86 | 2.29 | 2.58 | 2.821 | 2.81 | 2.57
5 µg/ml, genetic background: wild type | 2.81 | 2.68 | 3.194 | 2.8 | 2.68 | 2.89 | 2.69 | 2.81
5 µg/ml, genetic background: ΔmarA | 2.88 | 3.53 | 3.03 | 2.68 | 3.05 | 3.28 | 2.35 | 2.71
5 µg/ml, genetic background: Δrob | 2.4 | 2.96 | 3.22 | 2.97 | 2.4 | 2.44 | 2.55 | 2.75
5 µg/ml, genetic background: ΔsoxS | 2.56 | 2.72 | 3.08 | 2.23 | 2.65 | 3.03 | 2.81 | 2.59
10 µg/ml, genetic background: wild type | 2.66 | 2.46 | 2.67 | 2.66 | 2.07 | 2.41 | 2.33 | 2.45
10 µg/ml, genetic background: ΔmarA | 2.67 | 2.47 | 2.19 | 2.52 | 1.79 | 2.6 | 2.12 | 2.49
10 µg/ml, genetic background: Δrob | 2.1 | 2.31 | 2.4 | 2.32 | 1.51 | 1.77 | 2.32 | 2.34
10 µg/ml, genetic background: ΔsoxS | 2.21 | 2.52 | 2.56 | 1.84 | 1.55 | 2.14 | 2.19 | 2.52
